Measured values as given in publication PMC6446838.

Chains of the proteins cited; added tags and fusions are not shown.
UniProt P33176: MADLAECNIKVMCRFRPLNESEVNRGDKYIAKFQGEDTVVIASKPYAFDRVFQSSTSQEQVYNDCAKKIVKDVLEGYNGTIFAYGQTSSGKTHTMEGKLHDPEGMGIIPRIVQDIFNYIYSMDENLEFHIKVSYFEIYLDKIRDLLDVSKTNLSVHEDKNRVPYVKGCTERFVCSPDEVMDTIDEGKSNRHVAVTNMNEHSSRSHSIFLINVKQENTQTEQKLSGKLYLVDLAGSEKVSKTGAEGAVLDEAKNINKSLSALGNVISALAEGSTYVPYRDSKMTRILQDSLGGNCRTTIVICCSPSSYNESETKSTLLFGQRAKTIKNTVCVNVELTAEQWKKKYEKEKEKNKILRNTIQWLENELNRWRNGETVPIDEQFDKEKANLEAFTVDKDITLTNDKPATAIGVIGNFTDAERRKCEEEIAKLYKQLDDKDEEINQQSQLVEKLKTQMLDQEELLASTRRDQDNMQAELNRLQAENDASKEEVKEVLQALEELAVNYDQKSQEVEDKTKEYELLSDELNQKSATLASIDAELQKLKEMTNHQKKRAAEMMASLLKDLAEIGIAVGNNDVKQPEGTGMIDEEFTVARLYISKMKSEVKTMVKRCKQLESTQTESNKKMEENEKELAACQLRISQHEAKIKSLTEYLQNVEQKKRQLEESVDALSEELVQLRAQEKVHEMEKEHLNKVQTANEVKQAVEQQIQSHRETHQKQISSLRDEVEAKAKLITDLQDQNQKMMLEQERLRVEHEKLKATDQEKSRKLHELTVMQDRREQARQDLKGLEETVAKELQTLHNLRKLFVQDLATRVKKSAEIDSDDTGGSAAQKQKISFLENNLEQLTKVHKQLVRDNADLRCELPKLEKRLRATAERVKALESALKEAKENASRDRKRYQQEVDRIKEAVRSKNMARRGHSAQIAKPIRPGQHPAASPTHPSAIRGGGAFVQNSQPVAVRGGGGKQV
UniProt Q14244: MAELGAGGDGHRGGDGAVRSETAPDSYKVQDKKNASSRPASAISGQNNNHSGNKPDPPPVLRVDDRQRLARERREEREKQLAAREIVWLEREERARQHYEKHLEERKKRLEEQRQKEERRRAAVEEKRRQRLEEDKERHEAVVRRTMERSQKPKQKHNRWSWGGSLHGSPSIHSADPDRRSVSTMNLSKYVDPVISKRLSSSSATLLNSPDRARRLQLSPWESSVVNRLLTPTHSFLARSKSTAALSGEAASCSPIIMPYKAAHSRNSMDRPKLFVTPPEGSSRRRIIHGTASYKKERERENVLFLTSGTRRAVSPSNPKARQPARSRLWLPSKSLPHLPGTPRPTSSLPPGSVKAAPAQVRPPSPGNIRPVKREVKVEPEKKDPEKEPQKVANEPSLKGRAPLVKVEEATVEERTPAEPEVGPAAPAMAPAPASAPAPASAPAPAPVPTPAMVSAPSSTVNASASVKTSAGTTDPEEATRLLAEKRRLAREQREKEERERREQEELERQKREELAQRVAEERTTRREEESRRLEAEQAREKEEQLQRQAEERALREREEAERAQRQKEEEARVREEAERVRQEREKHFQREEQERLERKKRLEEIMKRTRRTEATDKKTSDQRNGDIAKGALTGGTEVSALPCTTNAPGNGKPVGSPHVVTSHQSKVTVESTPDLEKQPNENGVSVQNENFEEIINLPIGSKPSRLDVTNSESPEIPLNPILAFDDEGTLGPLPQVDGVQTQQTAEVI

Key:
[1] = biological target: full-length KIF5B-GFP with C-terminal Strep-tag (human) (UniProt P33176); assay: affinity purification with mass spectrometry + pull-down; Strep-tagged kinesin-GFP purified from HEK293T lysate on StrepTactin beads, washed with a low-ionic-strength buffer; copurifying endogenous proteins found by mass spectrometry and Western blotting
[2] = biological target: full-length KIF5B-GFP with C-terminal Strep-tag (human) (UniProt P33176); assay: affinity purification with mass spectrometry + pull-down; as a2, but the ionic strength of the washing buffer was increased (high-salt wash buffer with 1.5 M NaCl)

MAP7, endogenous in HEK293T cells (from UniProt Q14244 1-749)
binding [1]: binds | binding [2]: binds weakly

These are yes or no findings as the source states them, for the method shown. In cells and extracts the contact can be indirect. A yes stands for co-enrichment or nearness to the bait. Other partners may have been found.
